Source: publication doi:10.1101/2021.12.08.471779
No constants are given. Whether binding was seen depends on the method and setting. Binding seen in cells or lysates may run through a third protein. Some binding calls cover weakened binding; strength is not graded here.

T1: ExbD (Escherichia coli K-12 (endogenous in W3110 derivatives)) (UniProt P0ABV2)
T1 sequence: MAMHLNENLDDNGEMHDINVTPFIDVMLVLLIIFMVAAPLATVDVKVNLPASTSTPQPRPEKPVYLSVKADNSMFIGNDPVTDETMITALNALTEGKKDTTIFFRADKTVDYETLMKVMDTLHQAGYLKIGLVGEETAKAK

T2: FepA V16C (Escherichia coli K-12) (UniProt P05825)
T2 sequence: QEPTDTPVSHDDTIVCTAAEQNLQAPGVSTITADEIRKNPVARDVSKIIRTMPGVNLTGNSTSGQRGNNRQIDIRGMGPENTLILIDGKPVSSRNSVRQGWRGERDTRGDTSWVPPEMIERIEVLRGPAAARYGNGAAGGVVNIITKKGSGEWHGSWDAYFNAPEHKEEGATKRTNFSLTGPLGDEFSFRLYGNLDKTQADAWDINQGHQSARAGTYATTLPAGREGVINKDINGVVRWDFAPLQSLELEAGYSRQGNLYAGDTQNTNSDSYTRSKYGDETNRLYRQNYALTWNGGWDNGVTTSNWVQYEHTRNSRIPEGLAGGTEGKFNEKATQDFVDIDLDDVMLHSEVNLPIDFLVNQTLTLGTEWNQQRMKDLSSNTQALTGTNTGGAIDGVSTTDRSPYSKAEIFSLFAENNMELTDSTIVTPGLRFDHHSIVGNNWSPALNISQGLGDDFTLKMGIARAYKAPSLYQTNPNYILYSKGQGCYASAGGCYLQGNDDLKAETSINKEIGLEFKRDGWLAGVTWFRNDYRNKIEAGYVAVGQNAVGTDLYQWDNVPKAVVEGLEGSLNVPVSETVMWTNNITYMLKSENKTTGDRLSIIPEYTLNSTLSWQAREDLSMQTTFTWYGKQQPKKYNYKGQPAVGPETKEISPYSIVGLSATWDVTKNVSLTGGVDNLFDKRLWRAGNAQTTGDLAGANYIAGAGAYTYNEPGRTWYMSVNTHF

T3: FepA, wild type, chromosomally encoded (Escherichia coli K-12 (endogenous in W3110)), P05825
T3 chain: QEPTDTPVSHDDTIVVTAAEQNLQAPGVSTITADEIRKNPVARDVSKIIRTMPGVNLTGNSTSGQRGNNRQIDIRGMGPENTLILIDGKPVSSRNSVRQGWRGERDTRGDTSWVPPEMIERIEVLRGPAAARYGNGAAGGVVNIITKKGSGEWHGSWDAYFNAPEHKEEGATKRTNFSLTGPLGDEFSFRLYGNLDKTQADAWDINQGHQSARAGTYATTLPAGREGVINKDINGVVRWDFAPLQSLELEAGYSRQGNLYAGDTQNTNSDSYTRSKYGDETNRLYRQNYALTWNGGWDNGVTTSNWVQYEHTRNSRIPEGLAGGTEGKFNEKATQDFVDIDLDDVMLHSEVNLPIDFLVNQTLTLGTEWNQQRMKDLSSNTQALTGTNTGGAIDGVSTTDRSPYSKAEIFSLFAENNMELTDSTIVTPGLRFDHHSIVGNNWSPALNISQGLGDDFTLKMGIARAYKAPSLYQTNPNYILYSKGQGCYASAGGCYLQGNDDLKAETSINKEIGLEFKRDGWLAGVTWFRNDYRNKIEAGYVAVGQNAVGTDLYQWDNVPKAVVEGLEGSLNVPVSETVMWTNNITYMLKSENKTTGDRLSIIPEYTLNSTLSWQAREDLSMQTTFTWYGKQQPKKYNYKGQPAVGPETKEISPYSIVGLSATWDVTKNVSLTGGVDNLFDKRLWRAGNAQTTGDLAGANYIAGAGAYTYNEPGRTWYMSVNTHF


Columns and labels:
Assay in all cases: cross-linking
[1] = biological target: T1, ExbD (Escherichia coli K-12 (endogenous in W3110 derivatives))
[2] = biological target: T2, FepA V16C (Escherichia coli K-12)
[3] = biological target: T3, FepA, wild type, chromosomally encoded …; settings: remark: other sources report otherwise

Row | binding [1] | Molecule | also measured
1 | no binding | TonB F202A, W213A (pKP531) (from UniProt P02929 1-239) | 
2 |  | TonB C18G Q160C F202A (from UniProt P02929 1-239) | binding [2]: binds
3 | binds | TonB, plasmid-encoded (pKP442) (from UniProt P02929 1-239) | 
4 | no binding | TonB F202A, Y215A (pKP532) (from UniProt P02929 1-239) | 
5 |  | TonB, wild type, chromosomally encoded, P02929 1-239 (protein) MTLDLPRRFPWPTLLSVCIHGAVVAGLLYTSVHQVIELPAPAQPISVTMVTPADLEPPQAVQPPPEPVVEPEPEPEPIPEPPKEAPVVIEKPKPKPKPKPKPVKKVQEQPKRDVKPVESRPASPFENTAPARLTSSTATAATSKPVTSVASGPRALSRNQPQYPARAQALRIEGQVKVKFDVTPDGRVDNVQILSAKPANMFEREVKNAMRRWRYEPGKPGSGIVVNILFKINGTTEIQ | binding [3]: no binding
